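Phenotypic screen: M. tuberculosis growth, glucose 7H9 medium, 3 days; the read-out is not stated. Concentration: 500 µM. Higher reads as more growth inhibition (inferred: compounds with an IC50 in retests scored well above the rest). About 18,000 compounds were tested under these conditions; 7.9% (about 1,400) showed 50% or more at least once.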

Each number is a percent effect as filed. The record does not define 0% and 100%; most values in the screen are far below 50% and negative numbers occur (in some assays of this library far below -100). Compounds were drawn at random from those tested, without regard to their results.

compound: CCOc1ccccc1C(=O)N1CCC(N)CC1
effect: -9.886

compound: CN1CCN(C(=O)Cc2ccccc2)CC1
effect: 13.95

compound: CCC(=O)NC(CC)c1ccc(OC)c(OC)c1 (stereo not shown)
effect: 11.73

compound: O=C(NCC(O)c1ccc(Cl)cc1Cl)c1csnn1 (stereo not shown)
effect: 6.096

compound: CC1CN(C)CCN1CC(=O)N1CCc2sccc2C1 (stereo not shown)
effect: 20.16

compound: Nc1cnn(Cc2ccccn2)c1
effect: 50.97

compound: CN(C)C(=O)c1cccc(CN)c1
effect: 31.93

compound: COc1ccc2nc(SCN3CCCCC3=O)[nH]c2c1
effect: 36.16

compound: CN(C)C(=O)N1CCN(c2ncccc2C#N)CC1
effect: 34.6

compound: CS(=O)(=O)N1CC(CN)C1
effect: -7.905

compound: CN(C)CC1(CO)CCCN(Cc2ccoc2)C1 (stereo not shown)
effect: -5.438

compound: COc1ccccc1CCNC(=O)CN1CC(O)C1
effect: 1.784

compound: OC1(CNCC2(O)CCCC2)CCCC1
effect: -1.265

compound: O=C(NCc1cscn1)N1CCOCC1
effect: 5.379

compound: CC1CCN(CCC(=O)Nc2sccc2C(N)=O)CC1
effect: 46.72

compound: Cc1ccsc1C(=O)N1CCOc2ccncc21
effect: 25.85

compound: CN(C)C(=O)COC(=O)c1ccc2ccccc2n1
effect: 57.85

compound: O=C1CNc2cccc(F)c2N1
effect: -95.9

compound: Cc1ccccc1-n1nnnc1SCC(=O)NC1CC1
effect: 59.26

compound: Cc1ccc(C(=O)NCCc2ccccn2)c(=O)[nH]1
effect: 31.2

compound: CCc1nnsc1C(=O)Nc1cccc(C(N)=O)c1
effect: 38.13

compound: CCc1cc(C(=O)N[C@H]2CC[C@@H](N)C2)cc(=O)[nH]1
effect: -19.95

compound: COC(=O)N1CCN(c2ccncc2N)CC1
effect: 12.09

compound: CCN1CCC(NC(=O)c2c(F)cccc2OC)C1 (stereo not shown)
effect: -8.456

compound: CN(CCCN)C(=O)Cc1cccc(Br)c1
effect: 32.97

compound: COCCNCCNC(=O)c1noc2c1CCCC2
effect: 14.38

compound: CC(C)O[C@@H]1CCNC1
effect: -6.578

compound: CC(C)c1ccc(NC(=O)C2COCCN2C)cc1 (stereo not shown)
effect: 61.59

compound: NC1CCN(C2CC2)C1=O (stereo not shown)
effect: -2.159

compound: CC(C)Cn1cncc1CN
effect: -6.274

compound: O=C(NCCc1nc(C2CC2)no1)c1cnco1
effect: -4.467

3 of the entries, repeated:

{"compound": "CCN1CCC(NC(=O)c2c(F)cccc2OC)C1", "stereo": "stereo not shown", "effect": -8.456}
{"compound": "NC1CCN(C2CC2)C1=O", "stereo": "stereo not shown", "effect": -2.159}
{"compound": "Nc1cnn(Cc2ccccn2)c1", "effect": 50.97}

From ChEMBL document CHEMBL3988442, “University of Dundee, Small-Polar-MMV Screening Library” (2021).